Patent publication US20110178132A1, “PYRIDINE COMPOUND AND USE THEREOF FOR PEST CONTROL” (priority 2008, published 2011)
Some entries share one result that the patent states for a list of compounds. At least one structure is not confirmed: it was looked up by name or label, or the drawing left a doubt.

Tests used:
[1] = tested on: Tetranychus urticae female adult insects; assay: Test Example 2 / Reference Test Example: spray test against Tetranychus urticae on Phaseolus vulgaris seedlings; format: in vivo; conditions: for control ratio: 500 ppm spray solution (Formulation Example 1), 30 ml on Phaseolus vulgaris seedlings; for control value: Reference Test Example, same conditions as in Test Example 2 (500 ppm spray), observation day not separately stated
[2] = tested on: Aphis gossypii; assay: Test Example 1: spray test against Aphis gossypii on cucumber; format: in vivo; conditions: 500 ppm spray solution (Formulation Example 5), 20 ml/cup on cucumber; six days after spraying

Question: Which results are given for O=c1[nH]c(-c2cc(-c3c(F)cccc3C(F)(F)F)ccn2)no1 [(14)]?
Answer: control ratio ([1]; 8 days after the treatment): ≥ 90%; control ratio ([1]; 13 days after the treatment): ≥ 90%; control value [2]: ≥ 90%

Question: How did the control ratio ([1]; 8 days after the treatment) turn out when COc1ccc(-c2ccnc(-c3noc(=O)[nH]3)c2)c(C(F)(F)F)c1 [(12)] was run?
Answer: The control ratio was no less than 90%.

Question: And the control ratio ([1]; 13 days after the treatment)?
Answer: The control ratio was no less than 90%.

Question: How did the control ratio ([1]; 8 days after the treatment) turn out when O=c1[nH]c(-c2cc(-c3cccc(C(F)(F)F)c3)ccn2)no1 [(4)] was run?
Answer: Its control ratio is no less than 90%.

Question: And the control ratio ([1]; 13 days after the treatment)?
Answer: The control ratio was no less than 90%.

Question: With O=c1[nH]c(-c2cnccc2C(F)(F)F)no1 [comparative compound (B), reference compound] as the compound, how does the control value [1] read?
Answer: The control value was “less than 30%”.

Question: Which control ratio ([1]; 8 days after the treatment) does the source give for O=c1[nH]c(-c2cc(-c3cccc(C(F)(F)F)c3F)ccn2)no1 [(11)] here?
Answer: Its control ratio is no less than 90%.

Question: What about the control ratio ([1]; 13 days after the treatment) of the same compound?
Answer: The control ratio was no less than 90%.

Question: What about the control value [2] of the same compound?
Answer: Its control value is no less than 90%.

Question: How did the control ratio ([1]; 8 days after the treatment) turn out when O=c1[nH]c(-c2cc(-c3c(Cl)cccc3C(F)(F)F)ccn2)no1 [(15)] was run?
Answer: Its control ratio is no less than 90%.

Question: And the control ratio ([1]; 13 days after the treatment)?
Answer: Its control ratio is no less than 90%.

Question: And the control value [2]?
Answer: Its control value is no less than 90%.

Question: With O=c1[nH]c(-c2cc(-c3ccccc3C(F)(F)F)ccn2)no1 [(5)] as the compound, how does the control ratio ([1]; 8 days after the treatment) read?
Answer: Its control ratio is no less than 90%.

Question: What about the control ratio ([1]; 13 days after the treatment) of the same compound?
Answer: The control ratio was no less than 90%.

Question: For O=c1[nH]c(-c2cc(-c3cccc(OC(F)(F)F)c3)ccn2)no1 [(6)], which control ratio ([1]; 8 days after the treatment) is on record?
Answer: The control ratio was no less than 90%.

Question: What about the control ratio ([1]; 13 days after the treatment) of the same compound?
Answer: The control ratio was no less than 90%.

Question: And the control value [2]?
Answer: The control value was no less than 90%.

Question: With O=c1[nH]c(-c2cc(Oc3ccccc3C(F)(F)F)ccn2)no1 [(1)] as the compound, how does the control ratio ([1]; 8 days after the treatment) read?
Answer: Its control ratio is no less than 90%.

Question: And the control ratio ([1]; 13 days after the treatment)?
Answer: Its control ratio is no less than 90%.

Question: CCC(C)(C)C(=O)n1c(-c2cc(-c3ccc(C(F)(F)F)cc3C(F)(F)F)ccn2)noc1=O [(9)] was tested. Which control value [2] did it give?
Answer: The control value was no less than 90%.

Question: Which control value [1] does the source give for Cc1noc(C)c1S(=O)(=O)n1c(-c2ccccn2)noc1=O [comparative compound (A), reference compound] here?
Answer: The control value was “less than 30%”.

Question: How did the control value [2] turn out when O=c1[nH]c(-c2cc(-c3ccc(Cl)cc3C(F)(F)F)ccn2)no1 [(13)] was run?
Answer: The control value was no less than 90%.

Question: Which control ratio ([1]; 8 days after the treatment) does the source give for O=c1[nH]c(-c2cc(-c3ccc(F)cc3C(F)(F)F)ccn2)no1 [(16)] here?
Answer: The control ratio was no less than 90%.

Question: What about the control ratio ([1]; 13 days after the treatment) of the same compound?
Answer: Its control ratio is no less than 90%.
